Source: patent publication US20180148429A1 (SELVITA S.A., priority 2015, published 2018)
The structures given here were assigned with low confidence; some may be wrong.

Chains of the proteins cited; added tags and fusions are not shown.
UniProt Q16875, whole entry: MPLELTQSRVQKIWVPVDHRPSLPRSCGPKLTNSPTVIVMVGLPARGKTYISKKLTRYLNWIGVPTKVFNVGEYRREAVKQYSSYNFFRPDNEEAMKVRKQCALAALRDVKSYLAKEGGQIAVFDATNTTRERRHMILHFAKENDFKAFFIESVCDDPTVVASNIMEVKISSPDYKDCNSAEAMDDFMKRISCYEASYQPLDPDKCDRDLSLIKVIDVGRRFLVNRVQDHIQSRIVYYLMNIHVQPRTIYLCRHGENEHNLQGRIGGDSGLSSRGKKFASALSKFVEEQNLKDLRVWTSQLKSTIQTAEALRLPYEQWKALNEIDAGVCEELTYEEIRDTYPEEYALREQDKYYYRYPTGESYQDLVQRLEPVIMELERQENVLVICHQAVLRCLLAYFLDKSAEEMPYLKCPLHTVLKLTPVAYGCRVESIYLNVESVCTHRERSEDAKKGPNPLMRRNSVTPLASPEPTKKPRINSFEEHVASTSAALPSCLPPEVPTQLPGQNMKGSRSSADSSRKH
UniProt Q13882, whole entry: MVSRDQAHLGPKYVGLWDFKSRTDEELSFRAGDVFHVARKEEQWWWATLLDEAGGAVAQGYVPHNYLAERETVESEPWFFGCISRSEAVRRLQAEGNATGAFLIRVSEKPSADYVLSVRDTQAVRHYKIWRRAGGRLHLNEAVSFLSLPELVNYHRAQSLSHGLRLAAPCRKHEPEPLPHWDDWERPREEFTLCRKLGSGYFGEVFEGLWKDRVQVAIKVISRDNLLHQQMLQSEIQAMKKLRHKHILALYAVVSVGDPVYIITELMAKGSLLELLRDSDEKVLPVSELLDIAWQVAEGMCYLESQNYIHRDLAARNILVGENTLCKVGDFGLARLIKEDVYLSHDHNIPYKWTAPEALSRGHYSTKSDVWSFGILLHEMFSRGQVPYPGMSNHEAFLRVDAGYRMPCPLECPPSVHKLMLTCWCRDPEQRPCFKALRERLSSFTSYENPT

Columns and labels:
[1] = molecular target: Human recombinant His-tagged PFKFB3 (Homo sapiens, UniProt Q16875); assay: PFKFB3 IC50 determination assay (in vitro kinase assay, modified ADP-Glo system); type: biochemical; details: read-out: PFKFB3 IC50, ATP 20 μM (Km), fructose-6-phosphate 2 μM (Km), 25 nM PFKFB3, 2 h, rt
[2] = molecular target: BRK (PTK6 protein tyrosine kinase 6) (Homo sapiens, UniProt Q13882); assay: BRK (PTK6 protein tyrosine kinase 6) IC50 determination assay (in vitro kinase assay, ADP-Glo Max); type: biochemical; details: read-out: BRK IC50, ATP 1600 uM (Km), Poly(Glu, Tyr) 160 uM, 75 nM PTK6, 45 min, RT

SMILES: Cn1ccc2ccc(-c3cc(N(C(=O)C(F)(F)F)C4CCNCC4)cc4nccnc34)cc21
- IC50 [1]: 1000 to 10000 nM
- IC50 [2]: 1 to 1000 nM
